PubChem BioAssay AID1671195, Yale University | 2021

Screen: 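Knockdowns that increase or decrease uptake of fluorescent LDL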 (primary screen)
Cells: human Huh7 hepatoma cells
Reagent: siRNA pool against human genes, 18 nM
Timing: about 2 to 2.5 days of knockdown, then 8 h LDL uptake
Challenge: DiI-labelled LDL at 30 µg/ml for 8 h, in lipoprotein-deficient serum medium
Measurement: 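Per-cell DiI-LDL intensity by automated imaging; well means scaled to the plate median and given as a robust z-score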
Direction: robust z-score: higher = more LDL uptake after knockdown
Call rule: 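a gene counts as active if at least two replicate z-scores exceed ±2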
Shown is a random part of about 22,000 reagents. Of all reagents, about 1,510 (6.9%) got an active call. 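Active includes knockdowns raising or lowering LDL uptake; positive z-scores mean more uptake, negative mean less.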 Entries without a mark were called inactive.

The opening 2 records as a preview:
LOC400782 (retired record) → robust z-score, replicate 1 = -0.607; robust z-score, replicate 2 = -0.573; robust z-score, replicate 3 = -0.445
TNFSF10 → robust z-score, replicate 1 = -0.0817; robust z-score, replicate 2 = -0.107; robust z-score, replicate 3 = 0.00703

Results, repeating the preview:
LOC400782 (retired record) → robust z-score, replicate 1 = -0.607; robust z-score, replicate 2 = -0.573; robust z-score, replicate 3 = -0.445
TNFSF10 → robust z-score, replicate 1 = -0.0817; robust z-score, replicate 2 = -0.107; robust z-score, replicate 3 = 0.00703
EIF4HP1 → robust z-score, replicate 1 = -0.849; robust z-score, replicate 2 = -0.907; robust z-score, replicate 3 = -0.985
C2orf80 → robust z-score, replicate 1 = -0.2; robust z-score, replicate 2 = 0.0121; robust z-score, replicate 3 = 0.0653
ZNF582 → robust z-score, replicate 1 = 0.275; robust z-score, replicate 2 = 0.0238; robust z-score, replicate 3 = 0.245
RWDD1 → robust z-score, replicate 1 = 1.9; robust z-score, replicate 2 = 1.86; robust z-score, replicate 3 = 1.26
PSMD7 → robust z-score, replicate 1 = 2.01 (active); robust z-score, replicate 2 = 1.36; robust z-score, replicate 3 = 2.89
TTPAL → robust z-score, replicate 1 = 0.937; robust z-score, replicate 2 = 0.726; robust z-score, replicate 3 = 0.119
ANGPT1 → robust z-score, replicate 1 = -1.32; robust z-score, replicate 2 = -1.31; robust z-score, replicate 3 = -0.0934
CDK5RAP2 → robust z-score, replicate 1 = -0.151; robust z-score, replicate 2 = -0.984; robust z-score, replicate 3 = -1.18
GPT → robust z-score, replicate 1 = 1.15; robust z-score, replicate 2 = 2.6; robust z-score, replicate 3 = 1.52
EBAG9 → robust z-score, replicate 1 = 0.239; robust z-score, replicate 2 = -0.334; robust z-score, replicate 3 = 0.618
